Data as given in patent publication US20120291159A1, “Azoline Compounds for Combating Invertebrate Pests” (BASF SE, priority 2009, published 2012).
Some entries share one result that the patent states for a list of compounds.

Experiments:
Format in all cases: in vivo
[1] = system: Mediterranean Fruitfly (Ceratitis capitata); experiment: Mediterranean fruitfly microtiter diet test (B.4); conditions: 2500 ppm; egg and larval mortality after 5 days
Description: B.4 Mediterranean Fruitfly (Ceratitis capitata)
For evaluating control of Mediterranean fruitfly (Ceratitis capitata) the test unit consisted of microtiter plates containing an insect diet and 50-80 C. capitata eggs. The compounds were formulated using a solution containing 75% v/v water and 25% v/v DMSO. Different concentrations of formulated compounds were sprayed onto the insect diet at 5 μl, using a custom built micro atomizer, at two replications. After application, microtiter plates were incubated at about 28±1° C. and about 80±5% relative humidity for 5 days. Egg and larval mortality was then visually assessed.

[2] = system: Southern Armyworm (Spodoptera eridania); experiment: Southern armyworm lima bean spray test (B.7); conditions: 500 ppm; larvae on sprayed lima bean, 4 days after treatment
[3] = system: Cowpea Aphid (Aphis craccivora); experiment: Cowpea aphid spray test on potted cowpea plants (B.2); conditions: 500 ppm; sprayed cowpea plants; assessed after 24, 72 and 120 hours
Description: If not otherwise specified the test solutions were prepared as follow:
The active compound was dissolved at the desired concentration in a mixture of 1:1 (vol:vol) distilled water:acteon. The test solution was prepared the day it was used and in general at concentrations of […] (wt/vol).
B.2 Cowpea Aphid (Aphis craccivora)
Potted cowpea plants colonized with approximately 100-150 aphids of various stages were sprayed after the pest population has been recorded. Population reduction was assessed after 24, 72, and 120 hours.

[4] = system: Diamond Back Moth (Plutella xylostella); experiment: Diamond back moth leaf-dip test (B.3); conditions: 500 ppm; dipped Chinese cabbage leaves; recorded 24, 72 and 120 hours after treatment
[5] = system: Boll Weevil (Anthonomus grandis); experiment: Boll weevil microtiter diet test (B.11); conditions: 2500 ppm; egg and larval mortality after 5 days
Description: B.11 Boll Weevil (Anthonomus grandis)
For evaluating control of boll weevil (Anthonomus grandis) the test unit consisted of 24-well-microtiter plates containing an insect diet and 20-30 A. grandis eggs.
The compounds were formulated using a solution containing 75% v/v water and 25% v/v DMSO. Different concentrations of formulated compounds were sprayed onto the insect diet at 20 μl, using a custom built micro atomizer, at two replications.
After application, microtiter plates were incubated at about 23±1° C. and about 50±5% relative humidity for 5 days. Egg and larval mortality was then visually assessed.

[6] = system: Western Flower Thrips (Frankliniella occidentalis); experiment: Western flower thrips vial / leaf disc test (B.12); conditions: 2500 ppm; larvae or adults in treated vials, 2 DAT

SMILES	mortality in comparison with untreated controls [1]	mortality in comparison with untreated controls [2]	mortality in comparison with untreated controls [3]	other results
O=C(Cc1cccc(C2=NOC(c3cc(Cl)cc(Cl)c3)(C(F)(F)F)C2)c1)NCC(F)(F)F (stereo not drawn) [3-16]	at least 75%	at least 75%		
CS(=O)(=O)Cc1cccc(C2=NOC(c3cc(Cl)cc(Cl)c3)(C(F)(F)F)C2)c1 (stereo not drawn) [3-17]	at least 75%			
O=C(Cc1cccc(C2=NOC(c3cc(Cl)cc(Cl)c3)(C(F)(F)F)C2)c1)NCc1ccccn1 (stereo not drawn) [3-14]			at least 75%	
CC(=O)OCc1cccc(C2=NOC(c3cc(Cl)cc(Cl)c3)(C(F)(F)F)C2)c1 (stereo not drawn) [3-7]		at least 75%		
CCNC(=O)Oc1cccc(C2=NOC(c3cc(Cl)cc(Cl)c3)(C(F)(F)F)C2)c1 (stereo not drawn) [5-4]		at least 75%		mortality in comparison with untreated controls [4]: at least 75%
Cc1cccc(C2=NOC(c3cc(Cl)cc(Cl)c3)(C(F)(F)F)C2)c1 (stereo not drawn) [3-6]				mortality in comparison with untreated controls [5]: at least 75%
CC(=O)NN=Cc1cccc(C2=NOC(c3cc(Cl)cc(Cl)c3)(C(F)(F)F)C2)c1 (stereo not drawn) [4-4]			at least 75%	
CC(C)NC(=O)Oc1cccc(C2=NOC(c3cc(Cl)cc(Cl)c3)(C(F)(F)F)C2)c1 (stereo not drawn) [5-3]		at least 75%		
O=C(NCC(F)(F)F)c1cc(C2=NOC(c3cc(Cl)cc(Cl)c3)(C(F)(F)F)C2)ccn1 (stereo not drawn) [compound 2-3]				mortality in comparison with untreated controls [5]: at least 75%; mortality in comparison with untreated controls [4]: at least 75%; mortality in comparison with untreated controls [6]: at least 75%
CCCNC(=O)Cc1cccc(C2=NOC(c3cc(Cl)cc(Cl)c3)(C(F)(F)F)C2)c1 (stereo not drawn) [3-13]	at least 75%		at least 75%	
[O-][S+](c1cccc(C2=NOC(c3cc(Cl)cc(Cl)c3)(C(F)(F)F)C2)c1)C(F)(F)F (stereo not drawn) [compound 6-2]	at least 75%	at least 75%	at least 75%	mortality in comparison with untreated controls [5]: at least 75%; mortality in comparison with untreated controls [4]: at least 75%; mortality in comparison with untreated controls [6]: at least 75%
